Laboratory results reported in patent US20250049888A1, “USE OF THE NEGR1 PROTEIN AND BIOLOGICALLY ACTIVE FRAGMENTS THEREOF IN THE THERAPEUTIC TREATMENT OF ALK-RELATED DISEASES” (FONDAZIONE TELETHON ETS (70%), priority 2021, published 2025).
For at least one compound, name, drawing or mass did not settle the structure.

Test system: N2a cells
Test: N2a cell growth, MTT assay
Assay type: cell-based, murine
Conditions: 3 μM daily; vs vehicle (Lorlatinib) or GFP (rNegr1, PepA-1)
Procedure: The 3-(4,5-dimethylthiazol-2-yl)-2,5-diphenyl tetrazolium bromide (MTT) assay was performed to evaluate culture vitality. N2a cells were cultured in a 96-well plate at a concentration of 5×10^3 cell/cm^2. Treatment condition is indicated in the result section. At the end of the treatment, the MTT solution was added to the cell medium at a final concentration of 0.25 mg/mL. The incubation lasted 30 minutes at 37° C. Next, the medium was removed and the formazan precipitates were collected in DMSO (200 μL). The absorbance was measured at 570 nm using a spectrophotometer (Varioskan LUX, Thermofisher) as a proxy for cell viability. Relative cell viability fold is expressed over the control condition.
At the physiological level, Negr1 exists as a GPI-anchored membrane-bound protein and as a soluble protein released upon metalloprotease cleavage (Sanz et al. 2015; Pischedda and Piccoli 2015). Thus, the inventors studied whether ectopic treatment with soluble recombinant Negr1 (Negr1) might modulate cancer cell growth. […] At DIV5, cellular growth was evaluated by MTT assay.
To further narrow down the minimal biologically active sequence within PepA, the PepA structure was analysed in silico. […] At DIV5, cellular growth was evaluated by MTT assay.

C[C@H]1Oc2cc(cnc2N)-c2c(nn(C)c2C#N)CN(C)C(=O)c2ccc(F)cc21 [Lorlatinib, reference compound]
N2A growth / cellular vitality (MTT) at DIV5: impaired N2A growth to a similar extent
